# In PubChem BioAssay AID485314 (National Center for Advancing Translational Sciences (NCATS), 2010):
# Among all 340,000 compounds or so, about 4,500 (1.3%) were called active. Inconclusive means that the source gave no clear call. Such entries were picked first, then a sample of the others. The call rests on the fitted dose curve; in most records, active means well fitted inhibition curve with a large enough effect; inconclusive means small, poorly fitted or top-dose-only effect, or another doubt; inactive means no such curve, though single readings can be large or run the other way. Where the call is inconclusive, the potency comes from a doubtful curve fit.
# Target: DNA polymerase beta (Homo sapiens) (UniProt P06746)
# Assay: qHTS Assay for Inhibitors of DNA Polymerase Beta
# Details: Pol beta primer extension/strand displacement, fluorescence kinetic; activity change, negative = inhibition: at 114 µM (top of the series)
# Outline: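 Curves were derived by four-parameter Hill fits of normalized qHTS data. The kinetic fluorescent primer-extension read was taken at 0 and 10 min after 50 nM substrate, following a 15 min room-temperature preincubation of 10 nM enzyme with compounds.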
# On the % scale 0 is the no-effect control and ±100 the full control effect; potency means the concentration at half of the fitted maximal effect.
Compound,Potency,"activity change, negative = inhibition"
CCOC(=O)c1c(N)n(CCCOC(=O)c2ccco2)c2nc3ccccc3nc12,inactive,
CC1=CC(=C2C(=O)NC(=S)NC2=O)C=C(C(F)(F)F)N1C,"inconclusive: 25.1 µM [inhibitor, single point]",
O=C(O)CSCC(=O)N(Cc1ccccc1)c1nc(-c2ccccc2)c(-c2ccccc2)s1,active: 50.1 µM,
CCOc1ccccc1CN(CCc1ccc2c(c1)OCO2)Cc1ccc(CC)cc1,"inconclusive: 0.141 µM [inhibitor, full curve]",
Cc1ccc(S(=O)(=O)N(CC(=O)N/N=C\c2cccs2)c2cccc3cccnc23)cc1,active: 39.8 µM,
NC(=O)c1ccc(N=Cc2c(O)n(Cc3ccco3)c(=O)[nH]c2=O)cc1,,inconclusive: -98.6% [inhibitor]
O=C(O)c1cc(S(=O)(=O)Nc2ccccc2C(=O)O)ccc1O,"inconclusive: 70.8 µM [inhibitor, partial curve]",
COC(=O)c1c(NC(=O)C2CC=CCC2C(=O)O)sc2c1CCCCC2 (centres undefined),"inconclusive: 39.8 µM [inhibitor, partial curve]",
COc1ccc(N2C(=O)/C(=C/c3cccs3)C(=O)NC2=S)cc1,inactive,
O=C1NC(=O)C2=Cc3ccc(O)cc3OC2(O)N1 (centres undefined),"inconclusive: 20 µM [inhibitor, full curve, poor fit]",
CN(C)C1C(=O)C(C(N)=O)=C(O)C2(O)C(=O)C3=C(O)c4c(O)cccc4C(C)(O)C3CC12 (centres undefined),active: 3.16 µM,
CC1N(C)c2cc(NC(=O)c3ccco3)c(P(=O)(Nc3ccc([N+](=O)[O-])cc3)N3CCOCC3)cc2C1(C)C (centres undefined),"inconclusive: 20 µM [inhibitor, full curve, poor fit]",
Cc1ccc(Cn2cccc(C(=O)Nc3nnc(C)s3)c2=O)cc1,"inconclusive: 22.4 µM [inhibitor, full curve]",
O=C(O)c1ccc(/C=C/c2nc3ccccc3c(=O)n2-c2ccc(Br)cc2)cc1,"inconclusive: 39.8 µM [inhibitor, single point]",
CCOC(=O)c1ccc(NC(=O)c2c(O)[nH]c(=O)[nH]c2=O)cc1,active: 20 µM,
Cc1ccc(NC(=O)N(Cc2ccc3c(c2)OCO3)C2CCN(Cc3ccccc3)CC2)cc1Cl,inactive,
CN(C)c1ccc(/C=C/c2cc[n+](C)c3ccccc23)cc1,"inconclusive: 79.4 µM [inhibitor, partial curve]",
COc1cccc(C(=O)C2CCCN(Cc3cccc4c3OCO4)C2)c1 (centres undefined),"inconclusive: 1.41 µM [inhibitor, full curve]",
C/C=C(/C)C(=O)O[C@H]1C(C)=C2C([C@@H]1OC(=O)CCCCCCC)[C@@](C)(OC(C)=O)C[C@@H](OC(=O)CCC)[C@@]1(O)[C@H]2OC(=O)[C@@]1(C)O (some centres undefined),"inconclusive: 22.4 µM [inhibitor, single point]",
O=C1NC(=O)N(c2ccccc2)C(=O)/C1=C\C=C\c1ccccc1,"inconclusive: 79.4 µM [inhibitor, single point]",
COc1ccc(CCNCc2ccc3c(c2)n(C)c(=O)n3C)cc1,inactive,
CCN(N=O)[C@@H](Cc1ccccc1)CN(N=O)[C@@H](Cc1ccccc1)CN(C)N=O,"inconclusive: 0.158 µM [inhibitor, full curve, poor fit]",

# Two compounds drawn at random from the list so far:
Compound,Potency,"activity change, negative = inhibition"
COc1ccc(CCNCc2ccc3c(c2)n(C)c(=O)n3C)cc1,inactive,
COC(=O)c1c(NC(=O)C2CC=CCC2C(=O)O)sc2c1CCCCC2 (centres undefined),"inconclusive: 39.8 µM [inhibitor, partial curve]",

# (listing goes on)

Compound,Potency,"activity change, negative = inhibition"
C/C1=C\[C@@H](C)C/C=C/[C@H]2[C@@H]3O[C@]3(C)[C@@H](C)[C@H]3[C@H](Cc4c[nH]c5ccccc45)NC(=O)[C@]32C(=O)/C=C/C(=O)[C@@H]1O,active: 22.4 µM,
COc1ccc(N2C(=O)NC(=O)/C(=C\c3cn(C)c4ccccc34)C2=O)cc1,inactive,
Cc1ccc(-n2c(O)c(/C=C/C=Nc3ccccc3)c(=O)[nH]c2=O)cc1,"inconclusive: 31.6 µM [inhibitor, full curve, poor fit]",
CN1C(=O)C(=Cc2ccc(N3CCCCCC3)o2)C(=O)N(C)C1=S,"inconclusive: 50.1 µM [inhibitor, partial curve]",
CCOC(=O)CSCCOc1ccc(C=C2C(=O)NC(=O)NC2=O)cc1OC,inactive,
N#CC(=Cc1ccc(O)c(O)c1)C(N)=S,active: 2.82 µM,
O=c1[nH]c(O)c(N=Nc2cc([N+](=O)[O-])ccc2O)c(=O)[nH]1,"inconclusive: 70.8 µM [inhibitor, single point]",
Cc1nc(S(=O)(=O)N(C)Cc2ccccc2)c(C#N)c(C)c1Cl,"inconclusive: 3.98 µM [inhibitor, full curve]",
CCOC(=O)c1c(/N=C/c2c(O)n(-c3ccccc3F)c(=S)[nH]c2=O)sc2c1CCCC2,inactive,
CCOC(=O)C1(CCCc2ccccc2)CCN(C2CCC2)CC1,"inconclusive: 15.8 µM [inhibitor, full curve, poor fit]",
Oc1cc2c(cc1O)[C@H]1c3ccccc3CN[C@@H]1CC2,"inconclusive: 89.1 µM [inhibitor, single point]",
Cc1cc(Oc2cc(NN3CCCCC3)c([N+](=O)[O-])cc2[N+](=O)[O-])ccc1[N+](=O)[O-],active: 39.8 µM,
Cc1[nH]c2ccc(OCc3ccccc3)cc2c1CCN,inactive,
CSc1ncc(CN2CCCC(C(=O)c3ccccc3SC)C2)cn1 (centres undefined),"inconclusive: 31.6 µM [inhibitor, single point]",
Cc1c(Cl)cccc1N1C(=O)NC(=O)/C(=C\c2cc(C)n(-c3cccc(C(=O)O)c3C)c2C)C1=O,"inconclusive: 8.91 µM [inhibitor, full curve]",
O=C(Cn1ncc2c3ccccc3n(Cc3cccc(Cl)c3)c2c1=O)N1CCC2(CC1)OCCO2,active: 17.8 µM,
CN1C(=O)C(=Cc2ccc(Sc3ccccc3)o2)C(=O)N(C)C1=O,"inconclusive: 39.8 µM [inhibitor, full curve, poor fit]",
Cc1cc(/C=C2\C(=O)NC(=O)N(c3cccc(F)c3)C2=O)c(C)n1-c1ccc(C(=O)O)c(Cl)c1,active: 25.1 µM,
CN1CCC(N(C)c2nc(-c3ccc([N+](=O)[O-])cc3)nc3ccccc23)CC1,active: 11.2 µM,
Cc1c(Cl)cccc1NC(=O)CN1C(=O)C(C)N=C(c2ccccc2)c2ccccc21 (centres undefined),"inconclusive: 3.55 µM [inhibitor, single point]",
CC1Oc2cc3c(-c4c(O)cc(O)c5c(O)c6c(cc45)OC(C)C(C)C6=O)c(O)cc(O)c3c(O)c2C(=O)C1C (centres undefined),active: 35.5 µM,
CCN(CC)S(=O)(=O)c1ccc(NN=C(C#N)C#N)cc1,inactive,
Cc1ccc(Sc2ccc(N3CCCC(C(=O)Nc4ccc(Cl)cc4)C3)nn2)cc1 (centres undefined),"inconclusive: 39.8 µM [inhibitor, partial curve]",

Compound,Potency,"activity change, negative = inhibition"
CC(C)OCCCNC(=O)c1c(N)n(CC2CCCO2)c2nc3ccccc3nc12 (centres undefined),"inconclusive: 10 µM [inhibitor, full curve]",
Cc1ccc2c(c1)C1CN(C)CCC1N2C(=O)c1ccco1 (centres undefined),inactive,
CN(C)C(Cc1ccc(C#N)cc1)C(=O)c1ccccc1 (centres undefined),inactive,
CCc1nn(CC(=O)N2CCC3(CC2)OCCO3)c(=O)c2cc3ccccc3n12,,inconclusive: -33% [inhibitor]
O=C1NC(=O)N(Cc2ccco2)C(=O)/C1=C/c1ccc(-c2cccc([N+](=O)[O-])c2)o1,active: 17.8 µM,
CCCCN1C(=O)/C(=C\c2ccco2)C(=O)N(CCc2ccccc2)C1=O,active: 8.91 µM,
Nc1c(C(=O)Nc2ccc(Cl)cc2)sc2nc3c(cc12)N1CCC3CC1,"inconclusive: 28.2 µM [inhibitor, full curve]",
Cn1cc(/C=C/c2nc3ccccc3c(=O)n2-c2ccccc2)c2ccccc21,,inconclusive: -53.4% [inhibitor]
CC(Oc1ccc(Cl)cc1Cl)C(=O)Nc1ccc(S(=O)(=O)Nc2cnc3ccccc3n2)cc1 (centres undefined),"inconclusive: 100 µM [inhibitor, single point]",
COc1ccc(CN2C(=O)NC(=O)/C(=C\c3ccco3)C2=O)cc1,active: 12.6 µM,
CN1CCC(N2CC3CC(C2)c2cccc(=O)n2C3)CC1 (centres undefined),inactive,
Cc1ccc(/C=C2\C(=O)NC(=S)N(c3ccc(F)cc3)C2=O)o1,active: 15.8 µM,
CCN1CCN(c2nc3ccccc3s2)CC1,"inconclusive: 39.8 µM [inhibitor, single point]",
Cn1cc(C(=O)c2ccccc2)c2ccccc21,"inconclusive: 100 µM [inhibitor, single point]",
O=c1c2ccccc2nc(-c2ccoc2)n1-c1ccccc1Cl,"inconclusive: 100 µM [inhibitor, single point]",
Cn1c(O)c(C=NCCCCCCCCCCC(=O)O)c(=O)n(C)c1=O,"inconclusive: 100 µM [inhibitor, single point]",
Cc1[nH]n(-c2ccccc2)c(=O)c1C(c1ccc([N+](=O)[O-])cc1)c1c(C)[nH]n(-c2ccccc2)c1=O,inactive,
CC(Cc1ccc(OCC(=O)O)cc1)NCC(O)c1cccc(Cl)c1 (centres undefined),inactive,
CCCCn1c(NC(=O)c2ccco2)c(C(=O)OCC)c2nc3ccccc3nc21,inactive,
C=CCN1C(=O)NC(=O)/C(=C/c2ccoc2)C1=O,active: 28.2 µM,
Cc1ccc(S(=O)(=O)N(C)C/N=C(\N)N[N+](=O)[O-])cc1,"inconclusive: 89.1 µM [inhibitor, single point]",
COC(=O)C1=Nc2ccccc2/C1=C\c1c(O)n(-c2ccc(OC)cc2)c(=O)[nH]c1=O,"inconclusive: 22.4 µM [inhibitor, partial curve]",
O=C(Cc1ccc(S(=O)(=O)N2CCCC2)s1)N1CCN(c2ccc(F)cc2)CC1,active: 31.6 µM,

# A draw from above in order of heavy-atom count, low to high.
Compound,Potency,"activity change, negative = inhibition"
CCN1CCN(c2nc3ccccc3s2)CC1,"inconclusive: 39.8 µM [inhibitor, single point]",
Cn1cc(C(=O)c2ccccc2)c2ccccc21,"inconclusive: 100 µM [inhibitor, single point]",
Cc1ccc(S(=O)(=O)N(C)C/N=C(\N)N[N+](=O)[O-])cc1,"inconclusive: 89.1 µM [inhibitor, single point]",
CN(C)C(Cc1ccc(C#N)cc1)C(=O)c1ccccc1 (centres undefined),inactive,
Cc1ccc2c(c1)C1CN(C)CCC1N2C(=O)c1ccco1 (centres undefined),inactive,
Cc1ccc(/C=C2\C(=O)NC(=S)N(c3ccc(F)cc3)C2=O)o1,active: 15.8 µM,
COc1ccc(CN2C(=O)NC(=O)/C(=C\c3ccco3)C2=O)cc1,active: 12.6 µM,
CC(Cc1ccc(OCC(=O)O)cc1)NCC(O)c1cccc(Cl)c1 (centres undefined),inactive,
Nc1c(C(=O)Nc2ccc(Cl)cc2)sc2nc3c(cc12)N1CCC3CC1,"inconclusive: 28.2 µM [inhibitor, full curve]",
CCCCN1C(=O)/C(=C\c2ccco2)C(=O)N(CCc2ccccc2)C1=O,active: 8.91 µM,
Cn1cc(/C=C/c2nc3ccccc3c(=O)n2-c2ccccc2)c2ccccc21,,inconclusive: -53.4% [inhibitor]
O=C1NC(=O)N(Cc2ccco2)C(=O)/C1=C/c1ccc(-c2cccc([N+](=O)[O-])c2)o1,active: 17.8 µM,
COC(=O)C1=Nc2ccccc2/C1=C\c1c(O)n(-c2ccc(OC)cc2)c(=O)[nH]c1=O,"inconclusive: 22.4 µM [inhibitor, partial curve]",
CC(Oc1ccc(Cl)cc1Cl)C(=O)Nc1ccc(S(=O)(=O)Nc2cnc3ccccc3n2)cc1 (centres undefined),"inconclusive: 100 µM [inhibitor, single point]",
Cc1[nH]n(-c2ccccc2)c(=O)c1C(c1ccc([N+](=O)[O-])cc1)c1c(C)[nH]n(-c2ccccc2)c1=O,inactive,
